# Assay results from patent publication US7294615B1 (priority 1999, dated 2007).
# Assay: general procedure: solution-phase peptide synthesis; active esters (BocGlyGlyNOS, BocNH(CH2)5COONp) with NEt3
# Conditions: conjugation step
row,Substance,conjugation yield
1,"PEPTIDE1{[Bdi-Ap-Ad].[AC].[AC].[AC].G.G.G.G.G}|PEPTIDE2{[Bdi-Ap-Ad].[AC].[AC].[AC].G.G.G.G.G}|PEPTIDE3{[Bdi-Ap-Ad].[AC].[AC].[AC].G.G.G.G.G}|PEPTIDE4{[Bdi-Ap-Ad].[AC].[AC].[AC].G.G.G.G.G}|CHEM1{[C(CH2NH)4]}$PEPTIDE1,CHEM1,9:R2-1:R1|PEPTIDE2,CHEM1,9:R2-1:R2|PEPTIDE3,CHEM1,9:R2-1:R3|PEPTIDE4,CHEM1,9:R2-1:R4$$$V2.0",69%
2,[Ac4(OMe)Neu5Ac-Gab-AC2-Ad-Gly5-NHCH2—]4C,46%
3,[Ac4(OMe)Neu5Ac-Gab-AC3-Ad-Gly5-NHCH2—]4C,11%
4,[Ac4(OMe)Neu5Ac-Gab-AC-Ad-Gly5-NHCH2—]4C,76%
5,[Ac4(OMe)Neu5Ac-Gab-Ad-AC2-Gly5-NHCH2—]4C,60%
6,[Ac4(OMe)Neu5Ac-Gab-Ad-AC3-Gly5-NHCH2—]4C,57%
7,[Ac4(OMe)Neu5Ac-Gab-Ad-Gly4-NHCH2—]4C,68%
8,[Ac4(OMe)Neu5Ac-Gab-Ad-Gly5-NHCH2-]4C,65%

# Same assay, conditions: conjugation step, ammonium salt
row,Substance,conjugation yield
1,{[Neu5Ac-Gab-Ad-Gly6-NHCH2CH2-]2}x,Yield 72%
2,{[Neu5Ac-Gab-Ad-Gly7-NHCH2-]4C}x,71%

# Same assay, conditions: coupling step
row,Substance,step yield
1,[Boc-AC2-Gly5-NHCH2—]4C,57%
2,[Boc-AC3-Gly5-NHCH2—]4C,40%
3,[Boc-AC-Gly5-NHCH2—]4C,71%

# Same assay, conditions: late stage modification step
row,Substance,step yield
1,[Neu5Ac-Gab-AC2-Ad-Gly5-NHCH2—]4C,86%
2,[Neu5Ac-Gab-AC3-Ad-Gly5-NHCH2—]4C,89%
3,[Neu5Ac-Gab-AC-Ad-Gly5-NHCH2—]4C,93%
4,[Neu5Ac-Gab-Ad-AC2-Gly5-NHCH2—]4C,87%
5,[Neu5Ac-Gab-Ad-AC3-Gly5-NHCH2—]4C,90%
6,[Neu5Ac-Gab-Ad-Gly4-NHCH2—]4C,83%
7,[Neu5Ac-Gab-Ad-Gly5-NHCH2—]4C,83%

# Strings that start with PEPTIDE1 are HELM notation: dots part the residues, brackets hold end groups and non-standard residues.
